Measured values as given in PubChem BioAssay AID2685 (National Center for Advancing Translational Sciences (NCATS), 2010).
The list shows a part of the results. Shown are side measurements of this screen, not its main read-out; they come without a call. Compounds called inactive in the main read-out are mostly missing here. Potencies come from curve fits of mixed quality, noted in brackets.

Assay: qHTS Assay for Lipid Storage Modulators in Drosophila S3 Cells;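 on cell number change: cells counted by Cell Tracker Red CMTPX staining in the red channel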
Conditions: BODIPY lipid droplet fluorescence, 18-24 h; for cell number change: measured here: cell count max response, cells fed with added oleic acid
In short: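 Drosophila S3 cells got compounds at several concentrations plus oleic acid (400 uM solution). Laser-scanning cytometry with 488 nm excitation read lipid droplets at 500-530 nm and cells at 575-640 nm. Percent activity was relative to 20 uM Triacsin C.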

[1] = measured here: cell number channel AC50, cells fed with added oleic acid
[2] = measured here: lipid fluorescence (Fed channel) AC50, cells fed with added oleic acid

## CN(c1ccc(C(=O)NCc2ccco2)cc1)S(C)(=O)=O
[1]
  AC50: 580 nM [falling, partial curve, poor fit]

## O=C(CSc1ccc2nnc(-c3ccccn3)n2n1)Nc1ccc2c(c1)OCCO2
[1]
  AC50: 92 nM [rising, full curve, poor fit]
[2]
  AC50: 103 nM [rising, full curve, poor fit]

## O=C(c1cc2nc(-c3ccco3)cc(C(F)(F)F)n2n1)N1CCN(c2ccccn2)CC1
[2]
  AC50: 6510 nM [rising, single point]

## Cc1nn(Cc2cccc(C(=O)O)c2)c(C)c1[N+](=O)[O-]
  cell number change: 15.6%
[1]
  AC50: 184 nM [rising, full curve, poor fit]
[2]
  AC50: 146 nM [rising, full curve]

## O=C(COc1cc2oc(=O)c3c(c2cc1Cl)CCC3)Nc1cccnc1
  cell number change: 68.3%
[1]
  AC50: 29100 nM [rising, single point]

## COc1ccc(CN(C)C(=O)Cc2ccc(S(=O)(=O)N3CCOCC3)s2)cc1OC
  cell number change: -4.92%
[2]
  AC50: 5.17 nM [falling, full curve, poor fit]

## CCc1ccc(OC)c(S(=O)(=O)Nc2ccc(Cc3ccncc3)cc2)c1
  cell number change: 21.8%

## CCN(CC1COc2ccccc2O1)C(=S)NC1CC2CCC1C2 (configuration not stated)
  cell number change: 24.6%
[2]
  AC50: 1580 nM [rising, full curve]

## CCc1ccc(CN(C)C(=O)c2ccc3c(=O)n4c(nc3c2)CCC4)cc1
  cell number change: -35.5%
[1]
  AC50: 1840 nM [falling, full curve]
[2]
  AC50: 2060 nM [falling, full curve]

## Cc1ccc(SCCN2CCC(O)CCC2=O)cc1 (configuration not stated)
  cell number change: 12%
[2]
  AC50: 3660 nM [rising, full curve]

## O=C(COC(=O)c1ccc(F)c(S(=O)(=O)N2CCOCC2)c1)c1ccc(Cl)cc1
  cell number change: -29.4%
[2]
  AC50: 1160 nM [falling, full curve]

## O=C(Cc1cn2ccsc2n1)Nc1nc2c(s1)CCCC2
  cell number change: -8.33%

## COC(=O)c1ccc(COc2cccc(C)c2C)cc1
  cell number change: 8.67%
[1]
  AC50: 259 nM [rising, full curve, poor fit]
[2]
  AC50: 116 nM [rising, full curve]

## O=C(Nc1ccc(C(F)(F)F)cc1)C1CCN(c2cnccn2)CC1
  cell number change: 7.95%
[2]
  AC50: 5.17 nM [rising, full curve, poor fit]

## O=C(CCc1ccccc1)NC1CCCc2ccccc21 (configuration not stated)
  cell number change: 14.9%
[2]
  AC50: 6510 nM [rising, partial curve, poor fit]

## Cc1cc(NC(=O)CSc2nccn2-c2ccc(F)cc2)no1
  cell number change: 42.2%
[1]
  AC50: 3660 nM [rising, partial curve]

## O=C(Nc1ccc2c(c1)C(=O)OC2)Nc1cccc2ccccc12
[2]
  AC50: 29100 nM [falling, single point]

## COc1cc(CN2CCCN(C)CC2)c([N+](=O)[O-])cc1OC
  cell number change: 13.7%

## COc1cccc(CNc2ccc(S(=O)(=O)Nc3nccs3)cc2)c1O
  cell number change: -22%
[1]
  AC50: 4.61 nM [falling, full curve, poor fit]

## CCCCn1c(N)c(N(CCC(C)C)C(=O)C2CC(=O)N(Cc3ccc(C)cc3)C2)c(=O)[nH]c1=O (configuration not stated)
  cell number change: -20.4%
[2]
  AC50: 2590 nM [falling, full curve, poor fit]

## Cc1ccc(N/C(N)=N/c2nc(C)cc(N3CCCCC3)n2)c(C)c1
  cell number change: -70.6%
[1]
  AC50: 4110 nM [falling, partial curve]
[2]
  AC50: 7310 nM [falling, partial curve]

## COc1ccc(-c2cc(C(=O)Nc3c(C)n(C)n(-c4ccccc4)c3=O)c3ccccc3n2)c(OC)c1
  cell number change: 12.5%
[1]
  AC50: 6510 nM [rising, single point]

## CCCc1cc(NCC2CCCO2)n2c(nc3ccccc32)c1C#N (configuration not stated)
  cell number change: 5.69%
[2]
  AC50: 18400 nM [rising, partial curve, poor fit]

## COc1ccccc1/C=C/C(=O)OCC(=O)N1CCc2ccccc21
  cell number change: 2.34%
[2]
  AC50: 11600 nM [rising, partial curve]

## O=C(NC1CC2CCC1C2)C1COc2ccccc2O1 (configuration not stated)
[1]
  AC50: 6510 nM [rising, single point]

## O=C(Cc1ccc(Br)cc1)Nc1nc2ccccc2[nH]1
  cell number change: 8.95%
[1]
  AC50: 820 nM [rising, full curve, poor fit]

## COc1ccc(-c2csc(Nc3ccc(C)cn3)n2)cc1OC
  cell number change: 12.2%
[2]
  AC50: 4110 nM [falling, single point]

## FC(F)C(F)(F)C1=CC(c2cccs2)=NCCN1
  cell number change: 8.91%

## OC1(c2ccccc2)c2ccccc2-c2ncccc21 (configuration not stated)
  cell number change: 40.4%
[2]
  AC50: 20600 nM [rising, single point]

## Cc1ccccc1[C@@H]1C(C#N)=C(N)S[C@H]1C(=O)c1ccccc1
  cell number change: 85.7%
[1]
  AC50: 1460 nM [rising, full curve]
[2]
  AC50: 4110 nM [rising, partial curve]

## O=C(C1CCN(C2CCN(Cc3ccsc3)CC2)CC1)N1CCOCC1
  cell number change: 38.4%

## Cc1cccc(-n2c(Cc3ccccc3)nnc2SCc2ccc([N+](=O)[O-])cc2)c1
  cell number change: -23%

## OC(CN1CCCCCC1)CN(c1ccccc1)c1ccccc1 (configuration not stated)
  cell number change: -26.4%

## CC1CCC(Nc2nnnn2-c2ccccc2)CC1 (configuration not stated)
  cell number change: -25.3%

## O=C(COc1ccc(C(=S)N2CCCC2)cc1)Nc1ccccc1C(F)(F)F
  cell number change: -4.96%
[2]
  AC50: 7310 nM [falling, partial curve, poor fit]

## CCOc1ccc(/C=C2\SC(=S)N(NS(=O)(=O)c3ccc(C)cc3)C2=O)cc1OC
  cell number change: 13.6%

## COc1ccc(S(=O)(=O)N2CCC(C(=O)NCc3ccco3)CC2)cc1C
  cell number change: 3.95%
[1]
  AC50: 731 nM [rising, single point]
[2]
  AC50: 35500 nM [falling, single point]

## COc1ccc(OC)c(-c2csc(NC(=O)CN3C(=O)C4CCCCC4C3=O)n2)c1 (configuration not stated)
  cell number change: 0.643%
[2]
  AC50: 29100 nM [falling, single point]

## Clc1ccc(CSc2cc3c(nn2)-c2ccccc2CC3)cc1
  cell number change: -14.4%
[2]
  AC50: 2310 nM [falling, partial curve, poor fit]

## Cc1ccc(CN2CCC(n3nccc3NC(=O)C3CCOC3)CC2)cc1 (configuration not stated)
  cell number change: 18.3%

## Cc1cc(-c2nsc(=O)o2)c(S(C)(=O)=O)s1
  cell number change: -2.21%
[1]
  AC50: 1300 nM [falling, partial curve]
[2]
  AC50: 14600 nM [falling, partial curve, poor fit]

## Cc1c(C(=O)N2CCCC2)sc(NC(=O)c2cccs2)c1C#N
  cell number change: -12.4%
[1]
  AC50: 6510 nM [falling, single point]

## COc1cc(NC(=O)c2cc([N+](=O)[O-])ccc2NC(=O)CNCc2ccccn2)cc(OC)c1
  cell number change: 8.82%

## COc1ccc2[nH]c(C)c(CCNC(=S)Nc3ccccc3C)c2c1
  cell number change: 5.54%
[1]
  AC50: 4110 nM [rising, single point]
[2]
  AC50: 13000 nM [rising, partial curve, poor fit]

## CCCCC1(CC)C(=O)NC(=O)NC1=Nc1ccc(OC)cc1 (configuration not stated)
  cell number change: 15.6%
[2]
  AC50: 731 nM [rising, partial curve, poor fit]

## CCCn1c(CCc2ccccc2)nnc1SCC(=O)N1CCCC1
[1]
  AC50: 2910 nM [rising, single point]
[2]
  AC50: 7310 nM [rising, partial curve]

## Cc1ccc(NC(=O)Cc2ccsc2)cc1Cl
[2]
  AC50: 23100 nM [rising, partial curve]

## N#CCCn1c(SCC(=O)NCc2ccco2)nc2ccccc21
[1]
  AC50: 2590 nM [rising, partial curve]
[2]
  AC50: 2590 nM [rising, partial curve, poor fit]

## CCOC(=O)N1CCN(C(=O)c2ccc3oc(CCCc4ccccc4)nc3c2)CC1
  cell number change: -44.4%
[1]
  AC50: 23100 nM [falling, single point]
[2]
  AC50: 13000 nM [falling, partial curve]

## Cc1c(NC(=O)c2ccccc2NC(=O)COc2ccccc2)cccc1C(=O)O
  cell number change: 28.1%
[2]
  AC50: 29100 nM [rising, single point]

## CCOc1ccc(-c2nn[nH]n2)cc1
  cell number change: 15.7%
[2]
  AC50: 2060 nM [falling, partial curve]

## O=[N+]([O-])c1cn(Cc2ccccc2)cn1
  cell number change: 16.6%
[1]
  AC50: 411 nM [falling, single point]
[2]
  AC50: 580 nM [falling, single point]

## Cc1ccc(NCc2ccccc2O)c(C)c1
  cell number change: -31.2%
[1]
  AC50: 29100 nM [falling, single point]
[2]
  AC50: 29100 nM [falling, single point]

## Cc1ccccc1N1CCN(C(=S)c2ccccc2)CC1
  cell number change: 31.4%
[1]
  AC50: 10300 nM [rising, partial curve]
[2]
  AC50: 580 nM [rising, full curve]

## O=c1c(-c2ccc3c(c2)OCCO3)c(C(F)(F)F)oc2cc(O)cc(O)c12
  cell number change: -27.1%
[1]
  AC50: 820 nM [falling, full curve, poor fit]

## Cc1ccc(-c2nc(C(=O)NCC3CCCO3)cc3c2[nH]c2ccccc23)cc1 (configuration not stated)
  cell number change: 20.3%
[2]
  AC50: 517 nM [falling, full curve, poor fit]

## CCOc1cc(S(=O)(=O)N2CCN(C(=O)c3ccco3)CC2)ccc1F
  cell number change: -21.8%
[2]
  AC50: 2910 nM [rising, single point]

## O=C(Cn1c(=O)n(Cc2ccco2)c(=O)c2ccccc21)Nc1cccc(Cl)c1
  cell number change: 49.8%
[1]
  AC50: 2060 nM [rising, partial curve]
[2]
  AC50: 1300 nM [rising, partial curve]

## CCN(CC(=O)Nc1c(F)cccc1F)C(=O)/C=C/c1ccc(C)cc1
  cell number change: -6.74%
[2]
  AC50: 29100 nM [falling, partial curve, poor fit]

## CCOc1ccc(Nc2nc(NCC(=O)O)nc(N)c2[N+](=O)[O-])cc1
  cell number change: 10.2%
[2]
  AC50: 29100 nM [rising, single point]
